# Laboratory results: the supplement of paper PMC6411743
# ± gives the standard deviation of the averaged measurements. This is one part of the list.
# Target: T1, UniProt Q8TBA6 and related entries
# T1 sequence (whole entry): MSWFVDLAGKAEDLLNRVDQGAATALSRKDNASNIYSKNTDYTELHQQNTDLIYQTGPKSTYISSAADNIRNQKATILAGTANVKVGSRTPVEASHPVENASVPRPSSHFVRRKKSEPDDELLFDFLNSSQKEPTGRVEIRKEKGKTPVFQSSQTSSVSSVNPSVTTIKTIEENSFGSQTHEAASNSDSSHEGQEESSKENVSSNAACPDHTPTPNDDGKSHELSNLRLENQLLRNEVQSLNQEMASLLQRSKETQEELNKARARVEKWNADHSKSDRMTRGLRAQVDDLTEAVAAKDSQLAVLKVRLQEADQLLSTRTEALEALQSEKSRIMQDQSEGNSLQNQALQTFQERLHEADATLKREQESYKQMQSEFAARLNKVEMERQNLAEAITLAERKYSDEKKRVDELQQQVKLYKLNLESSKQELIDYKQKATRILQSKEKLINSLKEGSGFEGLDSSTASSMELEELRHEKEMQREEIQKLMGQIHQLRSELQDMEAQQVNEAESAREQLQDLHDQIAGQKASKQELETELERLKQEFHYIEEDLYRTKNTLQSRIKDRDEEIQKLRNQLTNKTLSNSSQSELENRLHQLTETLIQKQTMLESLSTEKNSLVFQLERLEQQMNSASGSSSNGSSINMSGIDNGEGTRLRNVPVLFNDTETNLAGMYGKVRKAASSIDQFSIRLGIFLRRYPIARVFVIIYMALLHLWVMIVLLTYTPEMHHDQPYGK
# Assay: NP40-soluble protein abundance relative to vehicle (solubility fold change) (ratio); higher = more soluble protein in presence of GTP
# Procedure: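 Solubility proteome profiling in Jurkat crude lysate. Lysate was treated with Mg-GTP (0.1-10 mM) for 10 min at room temperature and 3 min at 37 °C, then solubilised with 0.8% NP40 and benzonase, followed by ultracentrifugation. Proteins were quantified by TMT10 LC-MS/MS; the value is the NP40-soluble abundance relative to the NP40-processed vehicle, from 3 independent experiments.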
compound,measurement,setting,value
Nc1nc2c(ncn2[C@@H]2O[C@H](COP(=O)(O)OP(=O)(O)OP(=O)(O)O)[C@@H](O)[C@H]2O)c(=O)[nH]1 [guanosine triphosphate],NP40-soluble protein abundance,concentration: 0.1mM,0.947 ± 0.018
same,NP40-soluble protein abundance,concentration: 0.5mM,0.964 ± 0.037
same,NP40-soluble protein abundance,concentration: 1mM,0.961 ± 0.034
same,NP40-soluble protein abundance,concentration: 2mM,0.942 ± 0.05
same,NP40-soluble protein abundance,concentration: 4mM,0.926 ± 0.053
same,NP40-soluble protein abundance,concentration: 6mM,0.948 ± 0.051
same,NP40-soluble protein abundance,concentration: 8mM,0.944 ± 0.03
same,NP40-soluble protein abundance,concentration: 10mM,0.978 ± 0.055

# Nothing new here: an excerpt of the list.
compound,measurement,setting,value
Nc1nc2c(ncn2[C@@H]2O[C@H](COP(=O)(O)OP(=O)(O)OP(=O)(O)O)[C@@H](O)[C@H]2O)c(=O)[nH]1 [guanosine triphosphate],NP40-soluble protein abundance,concentration: 8mM,0.944 ± 0.03
same,NP40-soluble protein abundance,concentration: 10mM,0.978 ± 0.055
